The exact form of at least one protein or probe is not confirmed. At least one verdict rests on a figure or table, not on a statement of the authors.
System: K18
Assay: BLI
Settings: Kd only in heat map; residues 244-372

| Sequence | binding result |
| --- | --- |
| AAAAAAAAAAAAAAAAAAAAAAAAAAAAAAAAAAAAAAAA [A40] | binds |
| UUUUUUUUUUUUUUUUUUUUUUUUUUUUUUUUUUUUUUUU [U40] | binds |

Reference: publication doi:10.64898/2025.12.01.690311
